Counter-ions that a name gives are not always drawn. This is one part of the list. Single values are uncertain here, since repeats match poorly.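 The cells are human U-2 OS cells that stably carry a GFP sensor with a nuclear import signal and a classical export signal. They were transfected to make PR50, a 50-repeat proline–arginine dipeptide protein from the ALS/FTD gene C9ORF72. Each well's nuclear-minus-cytoplasm GFP signal was scaled from in-plate DMSO (low) to PR-only wells (high), then scored against the other test wells on the plate; compounds scoring well below zero were called hits that reverse the PR effect.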

For the test, the system named is U-2 OS NCT-C biosensor cells expressing PR50. Description: Z-score of normalised NCT-C biosensor translocation index in PR50-expressing cells; higher = more nuclear biosensor (more disrupted nuclear export). Particulars: 3 µM; 24 h.
In the case of `NC(=O)N[C@@H](CCC(=O)O)C(=O)O` [Carglumic Acid], the Z-score is inactive: 0.164.

Regarding `COCCCC/C(=N\OCCN)c1ccc(C(F)(F)F)cc1` [Fluvoxamine maleate], the Z-score was inactive: 0.255. Consider `COCCCC/C(=N\OCCN)c1ccc(C(F)(F)F)cc1` [Fluvoxamine Maleate], for which the Z-score is inactive: 0.964. As for `COC(=O)[C@H](c1ccccc1Cl)N1CCc2sccc2C1` [Clopidogrel Bisulfate], the figure is inactive: 0.155; as for `C[C@]12CCC(=O)C=C1CC[C@@H]1[C@@H]2C(=O)C[C@@]2(C)[C@H]1CC[C@]2(O)C(=O)CO` [Cortisone], inactive: 3.07; as for `O=C1/C(=C/c2cccs2)CC/C1=C\c1cccs1`, inactive: -0.219.

For the molecule `Nc1nc(F)nc2c1ncn2[C@@H]1O[C@H](COP(=O)(O)O)[C@@H](O)[C@@H]1O` [Fludarabine Phosphate], the Z-score was inactive: 0.64.

For the molecule `CO[C@H]1[C@H](OC(=O)c2ccc(C)[nH]2)[C@H](O)[C@@H](Oc2ccc3c(O)c(NC(=O)c4c[nH]c(C(=O)Nc5c(O)c6ccc(O[C@H]7OC(C)(C)[C@@H](OC)[C@H](OC(=O)c8ccc(C)[nH]8)[C@@H]7O)c(C)c6oc5=O)c4C)c(=O)oc3c2C)OC1(C)C` [Coumermycin A1], the Z-score is inactive: 0.0651. `O=C(OCCN1CCOCC1)C1(c2ccccc2)CCCCC1`: the Z-score was inactive: -0.351. As for `COc1ccc(-c2coc3cc(O)ccc3c2=O)cc1` [Formononetin], the Z-score was inactive: -1.04.

`Clc1ccc2c(c1)C(N1CCNCC1)=Nc1ccccc1O2` [Amoxapine]: the Z-score was inactive: 0.847. The value for `O=C(O)CCCc1c[nH]c2ccccc12` [Indole-3-butyric acid] was inactive: -0.318. As for `CC(C)(Oc1ccc(CCNC(=O)c2ccc(Cl)cc2)cc1)C(=O)O` [Bezafibrate], the figure is inactive: -0.651; as for `OCCN1CCN(CCCN2c3ccccc3Sc3ccc(C(F)(F)F)cc32)CC1` [Fluphenazine dihydrochloride], inactive: -0.175; as for `OCCN1CCN(CCCN2c3ccccc3Sc3ccc(C(F)(F)F)cc32)CC1` [Fluphenazine· 2HCl], inactive: 0.416. `NCCCCC(=O)O` [5-Aminovaleric acid hydrochloride]: the Z-score is inactive: 0.0263.

Regarding `CC(C(=O)O)c1ccc(CC2CCCC2=O)cc1` (stereo not given) [loxoprofen], the Z-score was inactive: 0.765. Take `CC[C@H]1OC(=O)[C@H](C)[C@@H](O[C@H]2C[C@@](C)(OC)[C@@H](O)[C@H](C)O2)[C@H](C)[C@@H](O[C@@H]2O[C@H](C)C[C@H](N(C)C)[C@H]2O)[C@](C)(O)C[C@@H](C)C(=O)[C@H](C)[C@@H](O)[C@]1(C)O` [Erythromycin]: the Z-score is inactive: -0.0223.

For the molecule `CCCSc1ccc2[nH]c(NC(=O)OC)nc2c1` [Albendazole], the Z-score is inactive: 0.38. As for `CO[C@H]1/C=C/O[C@@]2(C)Oc3c(C)c(O)c4c(O)c(c(/C=N/N5CCN(C)CC5)c(O)c4c3C2=O)NC(=O)/C(C)=C\C=C\[C@H](C)[C@H](O)[C@@H](C)[C@@H](O)[C@@H](C)[C@H](OC(C)=O)[C@@H]1C` [Rifampicin], the figure is inactive: -0.46.

Turning to `CO[C@H]1/C=C/O[C@@]2(C)Oc3c(C)c(O)c4c(O)c(c(/C=N/N5CCN(C)CC5)c(O)c4c3C2=O)NC(=O)/C(C)=C\C=C\[C@H](C)[C@H](O)[C@@H](C)[C@@H](O)[C@@H](C)[C@H](OC(C)=O)[C@@H]1C` [Rifampin (Rifampicin)], the Z-score is inactive: 1.34. As for `CC(C)NCC(O)c1ccc(O)c(O)c1` (racemic) [(±) Isoproterenol·HCl], the Z-score is inactive: 0.161. The value for `CC(C)NCC(O)c1ccc(O)c(O)c1` (racemic) [(±)-Isoproterenol hydrochloride] was inactive: 0.47; that for `CC(C)(C)c1ccc(/C=C/C(=O)Nc2ccc3c(c2)OCCO3)cc1` was inactive: -0.294. As for `CC[n+]1c(/C=C/C=C2/N(C)c3ccccc3C2(C)C)sc2ccccc21`, the figure is inactive: 2.12; as for `CCc1ccc(CCOc2ccc(CC3SC(=O)NC3=O)cc2)nc1` (stereo not given) [Pioglitazone·HCl], inactive: 0.0226. Regarding `Cc1ccc(N(CC2=NCCN2)c2cccc(O)c2)cc1` [Phentolamine·HCl], the Z-score is inactive: 1.03.

For the molecule `Cc1ccc(N(CC2=NCCN2)c2cccc(O)c2)cc1` [Phentolamine mesylate], the Z-score is inactive: -0.834. On to `Oc1ccc(C2CNCCc3c2cc(O)c(O)c3Cl)cc1` (stereo not given) [Fenoldopam monohydrobromid e], for which the Z-score is inactive: 0.0955. As for `Oc1ccc(C2CNCCc3c2cc(O)c(O)c3Cl)cc1` (stereo not given) [Fenoldopam Mesylate], the figure is inactive: 0.134; as for `CC(C(=O)O)c1cccc(Oc2ccccc2)c1` (stereo not given) [Fenoprofen calcium salt dihydrate], inactive: 0.569. The value for `O=C1NC(=O)C(c2ccccc2[N+](=O)[O-])=C1Nc1ccc(O)c(Cl)c1` was inactive: 0.936; that for `COc1cc2c(c(OC)c1OC)-c1c(cc3c(c1OC)OCO3)C[C@H](C)[C@](C)(O)C2` [Gomisin A] was inactive: 0.408; that for `CC1(C)CCC(NC(=O)[C@@H](N)CCC(=O)O)CC1` was inactive: -0.589. In the case of `O=C(O)C1CCNCC1` [Isonipecotic acid], the Z-score was inactive: -0.217. Consider `CC1(C)CCC=[N+]1[O-]` [5,5-Dimethyl-1- pyrroline-N-oxide], for which the Z-score is inactive: 0.787. In the case of `C=CC(N)CCC(=O)O` (racemic) [(±)-gamma-Vinyl GABA], the Z-score was inactive: -0.484. For `OC[C@@H](O)[C@@H](O)[C@H](O)[C@H](O)CO` [Mannitol], the Z-score is inactive: 0.037.

Consider `CCCCN1C[C@H](O)[C@@H](O)[C@H](O)[C@H]1CO` [Miglustat (N-Butyldeoxynojirimycin·HCl)], for which the Z-score was inactive: 0.0572. As for `C[C@@H](O)[C@H]1C(=O)N2C(C(=O)O)=C(SCCNC=N)C[C@H]12` [Imipenem monohydrate], the figure is inactive: -0.729; as for `C[C@@H](O)[C@H]1C(=O)N2C(C(=O)O)=C(SCCNC=N)C[C@H]12` [Imipenem], inactive: -0.215. As for `c1ccc2c(c1)CCCC2C1=NCCN1` (stereo not given) [Tetrahydrozoline hydrochloride], the figure is inactive: -0.396. The value for `c1ccc2c(c1)CCCC2C1=NCCN1` (stereo not given) [Tetrahydrozoline·HCl] was inactive: -0.342; that for `CN(C)C[C@H](O)Cn1c2ccc(Br)cc2c2cc(Br)ccc21` (racemic) [Wiskostatin] was inactive: 0.462; that for `CC(C)(C)C(=O)OCOC(=O)[C@@H]1N2C(=O)[C@@H](/N=C/N3CCCCCC3)[C@H]2SC1(C)C` [Pivmecillinam] was inactive: -0.124. In the case of `N[C@@H](CC(=O)O)C(=O)O` [L-Aspartic acid], the Z-score is inactive: -0.00259. With `C1N2CN3CN1CN(C2)C3` [Methenamine Hippurate], the Z-score is inactive: -0.265. Take `CCCCCN(C)CCC(O)(P(=O)(O)O)P(=O)(O)O` [Ibandronate sodium]: the Z-score was inactive: -1.7. With `C=C(C)[C@@H]1CC[C@]2(C(=O)O)CC[C@]3(C)[C@H](CC[C@@H]4[C@@]5(C)CC[C@H](O)C(C)(C)[C@@H]5CC[C@]43C)[C@@H]12` [Betulinic acid], the Z-score was inactive: -1.16. The value for `O=C(/C=C/c1ccc(O)c(O)c1)c1ccc(O[C@@H]2O[C@H](CO)[C@@H](O)[C@H](O)[C@H]2O)c(O)c1O` [Marein] was inactive: -0.177; that for `CC(C)=CCC[C@](C)(O)[C@H]1CC[C@]2(C)[C@@H]1CC[C@@H]1[C@@]3(C)CCC(=O)C(C)(C)[C@@H]3CC[C@]12C` [Dipterocarpol] was inactive: -0.58. For `CN=c1nc(-c2ccccc2)n(-c2ccccc2)s1`, the Z-score was inactive: -0.916. Consider `C[N+](C)(C)CCOP(=O)(O)OP(=O)([O-])OC[C@H]1O[C@@H](n2ccc(N)nc2=O)[C@H](O)[C@@H]1O` [Cytidine 5'- diphosphocholine sodium salt hydrate], for which the Z-score was inactive: -0.359. The value for `CC(C)c1nc(N(C)S(C)(=O)=O)nc(-c2ccc(F)cc2)c1/C=C/[C@@H](O)C[C@@H](O)CC(=O)O` [Rosuvastatin calcium] was inactive: -0.229; that for `CC(C)c1nc(N(C)S(C)(=O)=O)nc(-c2ccc(F)cc2)c1/C=C/[C@@H](O)C[C@@H](O)CC(=O)O` [Rosuvastatin Calcium] was inactive: -0.396; that for `C=C(CC)C(=O)c1ccc(OCC(=O)O)c(Cl)c1Cl` [Ethacrynic Acid] was inactive: 3.71. Consider `CCOC(=O)COc1ccc2c(c1)C[C@@H](NC[C@H](O)c1cccc(Cl)c1)CC2`, for which the Z-score was inactive: -0.186. Take `CCN(CC)CCCC(C)Nc1ccnc2cc(Cl)ccc12` (stereo not given) [Chloroquine Diphosphate]: the Z-score is inactive: 1.17. Take `CCN(CC)CCCC(C)Nc1ccnc2cc(Cl)ccc12` (stereo not given) [Chloroquine diphosphate]: the Z-score is inactive: -0.815. As for `CCNC(=O)[C@H]1O[C@@H](n2cnc3c(N)nc(NCCc4ccc(CCC(=O)O)cc4)nc32)[C@H](O)[C@@H]1O`, the figure is inactive: -0.181. The value for `O=C(COc1cccc2c(=O)[nH]ccc12)c1ccccc1` was inactive: -0.845; that for `O=C(O)Cn1c(C(=O)Nc2nc(-c3ccccc3Cl)cs2)cc2ccccc21` was inactive: -0.0595. As for `C[C@](N)(Cc1ccc(O)cc1)C(=O)O` [L-alpha-Methyl-p- tyrosine], the figure is inactive: -0.121; as for `CC(C)NCC(O)COc1cccc2ccccc12` (racemic) [(±)-Propranolol hydrochloride], inactive: 1.23; as for `CO[C@H]1/C=C/O[C@@]2(C)Oc3c(C)c(O)c4c(O)c(c(/C=N/N5CCN(C6CCCC6)CC5)c(O)c4c3C2=O)NC(=O)/C(C)=C\C=C\[C@H](C)[C@H](O)[C@@H](C)[C@@H](O)[C@@H](C)[C@H](OC(C)=O)[C@@H]1C` [Rifapentine], inactive: -0.38.

For the origin of these results see the supplement of paper PMC8616043.
